The nature of this experiment: qHTS Assay for Lipid Storage Modulators in Drosophila S3 Cells.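 For cell number change: cells counted by Cell Tracker Red CMTPX staining in the red channel.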 The following applies: BODIPY lipid droplet fluorescence, 18-24 h; for cell number change: measured here: cell count max response, cells fed with added oleic acid. In outline: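 Drosophila S3 cells loaded with oleic acid (400 uM, as added) and compounds at several concentrations; lipid droplets imaged by 488-nm laser-scanning cytometry, 500–530 nm intensity and object ratio to cell channel. Percent activity normalized to 20 uM Triacsin C.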
Background: In qHTS, concentration-response curves come from the screen itself.

[1] abbreviates: measured here: lipid fluorescence (Fed channel) AC50, cells fed with added oleic acid.
The mark [2] stands for this setting: measured here: cell number channel AC50, cells fed with added oleic acid.

From PubChem BioAssay AID2685 (National Center for Advancing Translational Sciences (NCATS), 2010) come the findings set out here.

The other results are listed elsewhere or left out. These are further read-outs of the screen, such as a control signal, another cell line or another target. No call is given for them. Compounds called inactive in the main read-out are mostly missing here. The note in brackets gives the kind of curve behind each potency; many fits are weak.

A word on the AC50: it is the midpoint of the concentration-response curve, whichever way the signal moves. Lower therefore signals greater potency. For `COc1ccc(CNC(=O)c2ccc[nH]2)cc1Cl`, the cell number change stood at 12.7%. Moreover, the AC50 under setting [1] is 0.116 µM [rising, full curve, poor fit].

`COc1cc(NC(=S)N2CCC(C(N)=O)CC2)c(OC)cc1Cl`: the cell number change worked out at 9.87%. Further, under setting [1], the AC50 is 1.16 µM [falling, single point].

With `Cc1ccc(NC(=S)N2CCN(S(=O)(=O)c3ccc(F)cc3)CC2)cc1`, the AC50 under setting [1] is 29.1 µM [rising, single point].

Take `CCc1csc(CNC(=O)C2CCC(=O)N(Cc3cccc(F)c3)C2)n1` (stereo not drawn): the cell number change turned out to be 5.57%. Further, the AC50 under setting [1] was 29.1 µM [rising, single point].

For the molecule `Cc1nc2cc(-c3ccc(Cl)cc3)nn2c(NCCN(C)C)c1C`, the cell number change was -39.2%.

As to `CCOc1cc(N2CCOCC2)c(OCC)cc1NC(=O)COc1ccccc1[N+](=O)[O-]`, the cell number change is -0.543%.

Consider `O=C(CN1CCN(S(=O)(=O)c2ccccc2)CC1)Nc1ccc2c(c1)CCC2`, for which the cell number change is 19%. Moreover, under setting [2], the AC50 was 4.11 µM [rising, full curve, poor fit].

For `CCOC(=O)C1CCN(c2c(NCCN(CC)c3ccccc3)c(=O)c2=O)CC1`, the cell number change was 20%. Also, the AC50 under setting [1] was 7.31 µM [rising, partial curve].

Take `CC(C)(C)c1ccc(C(=O)N2CCC(C(=O)NC3CCCCCC3)CC2)cc1`: the cell number change is -11.8%.

On to `O=C(NC(=S)Nc1ccccc1N1CCCC1)c1ccc([N+](=O)[O-])cc1`, for which the cell number change is -13.1%. The AC50 under setting [1] is 23.1 µM [falling, single point].

On to `COc1ccc(C(=O)N2CCCC(Nc3ccc(C)c(C)c3)C2)cc1` (stereo not drawn), for which the cell number change was 15.9%. Further, under setting [1], the half-maximal activity concentration (AC50) was 3.26 µM [rising, partial curve, poor fit].

Take `Fc1ccc(C(c2nnnn2C2CCCC2)N2CCN(Cc3ccncc3)CC2)cc1` (stereo not drawn): the cell number change was 14.9%. In addition, the AC50 under setting [2] was 2.06 µM [rising, partial curve]. Also, the half-maximal activity concentration (AC50) under setting [1] was 1.84 µM [rising, partial curve].

For the molecule `Cc1ccc(-n2nc3cc(C)c(N)cc3n2)cc1`, the cell number change is 28.5%. Also, the concentration at half-maximal activity (AC50) under setting [1] is 2.31 µM [rising, partial curve].

On to `O=C(c1ccccc1F)N1CCCc2ccccc21`, for which the cell number change is -2.49%. The AC50 under setting [1] was 0.58 µM [falling, single point].

Consider `O=C(NCCOc1ccccc1)c1ccccc1NC(=O)C1CCCO1` (stereo not drawn), for which the cell number change was -1.32%. The AC50 under setting [1] was 6.51 µM [rising, single point].

Consider `COC(=O)c1ccccc1NC(=O)c1ccc(COc2ccccc2)o1`, for which the cell number change was 116%. Moreover, the concentration at half-maximal activity (AC50) under setting [2] was 18.4 µM [rising, partial curve]. The concentration at half-maximal activity (AC50) under setting [1] was 9.2 µM [rising, partial curve].

Turning to `COc1ccccc1CC(=O)N1CCCC(CCC(=O)NCc2ccccc2F)C1` (stereo not drawn), the cell number change is -28.3%. Also, under setting [1], the AC50 is 16.4 µM [falling, single point].

In the case of `COc1cccc(NC(=O)N2CCCC2)c1`, the cell number change is -55.4%.
